# Experimental data reported in PubChem BioAssay AID540256 (National Center for Advancing Translational Sciences (NCATS), 2011).
# Out of some 300,000 compounds screened, about 3,700 (1.2%) were called active. Inconclusive results, whose numbers are uncertain, are shown with a selection of clear calls. Calls come from the whole dose curve; tested in HEK293 cells. A potency beside an inconclusive call is a rough fit, not a confirmed value.
# Assay: qHTS for Inhibitors of binding or entry into cells for Lassa Virus; note: nearly all actives have a fitted effect of over 50% in size
# Settings: Lassa virus pseudotype entry inhibition, cell reporter; activity change, negative = inhibition: at 37.9 µM (top of the series) unless noted
# % is set by controls: 0 for no effect and ±100 for the full control effect; potency is the fitted concentration of half-maximal effect.
SMILES,Potency,"activity change, negative = inhibition"
O=c1[nH]c(SCc2ccc(F)cc2Cl)nc2ccccc12,"inconclusive: 11.2 µM [inhibitor, partial curve, poor fit]",–
CC(=O)Nc1ccc(NC(=O)CSC2=NCCS2)cc1,–,inactive: 2.69%
O=C1CN(C(=O)/C=C/c2cccc(Cl)c2)c2ccccc2N1,"inconclusive: 35.5 µM [inhibitor, single point]",–
C=CCNC(=O)/C(C#N)=C/c1cc(Br)ccc1OC,"inconclusive: 6.51 µM [inhibitor, full curve, poor fit]",–
COc1cc(/C=C(\C#N)c2nc3ccccc3[nH]2)ccc1OCc1ccccc1F,"inconclusive: 0.891 µM [inhibitor, partial curve, poor fit]",–
C[C@H]1[C@H](C)CC[C@]2(C(=O)O)CC[C@]3(C)C(=CC[C@@H]4[C@@]5(C)C[C@@H](O)[C@H](O)C(C)(C)[C@@H]5CC[C@]43C)[C@H]12,–,inactive: 1.31%
COc1cccc(CN(C)C(=O)C(CCSC)NS(=O)(=O)c2ccc3c(c2)OCCO3)c1OC (centres undefined),"inconclusive: 7.94 µM [inhibitor, partial curve]",–
Cc1ccc(OCc2nnc(SCc3nc4ccccc4[nH]3)n2Cc2ccco2)cc1,"inconclusive: 35.5 µM [inhibitor, single point]",–
CCCC(=O)Nc1sc(C(=O)Nc2cccc(N)c2)c(C)c1C(=O)OC,"inconclusive: 8.91 µM [inhibitor, partial curve, poor fit]",–
Cn1c(SCC(=O)NC2CCCCC2)nnc1-c1cccnc1,"inconclusive: 35.5 µM [activator, single point]",–
Cc1ccc(-c2onc(C)c2C)cc1S(=O)(=O)N1CCOc2ccc(Cl)cc21,–,inactive: -22.2% [at 46.1 µM]
CCN(CC(=O)N1CCOCC1)S(=O)(=O)c1cc(Cl)ccc1Cl,–,inactive: -0.648%
Cn1cc(C(=O)N/N=C/C(Br)=C/c2ccccc2)ccc1=O,–,inactive: -6.77%
CCOc1ccc(OCC)c(NC(=O)C2C3C=CC(O3)C2C(=O)NCc2ccco2)c1 (centres undefined),–,inactive: 4.35%
COc1ccccc1CNC(=O)C/C(C)=N/NC(=O)Cc1ccccc1,–,inactive: 8.76%
COc1ccc(NS(=O)(=O)c2ccc3oc(SC(C)C(N)=O)nc3c2)cc1 (centres undefined),"inconclusive: 7.08 µM [inhibitor, partial curve, poor fit]",–
CCCSc1ncc(Cl)c(C(=O)Nc2c(C(=O)c3ccc(C)cc3)oc3ccccc23)n1,"inconclusive: 35.5 µM [activator, single point]",–
COc1cc(SC)ccc1C(=O)N1CCc2ccccc21,–,inactive: 1%
CN1CCN(c2ncnc3c2c(-c2ccccc2)cn3-c2ccc(F)cc2)CC1,"inconclusive: 28.2 µM [inhibitor, single point]",–
COc1cc(NC(=O)COc2ccccc2Cl)ccc1NC(=O)c1cccs1,"inconclusive: 35.5 µM [inhibitor, single point]",–
COc1cccc(-c2cc(C(=O)NCc3ccco3)c3ccccc3n2)c1,"inconclusive: 35.5 µM [inhibitor, single point]",–
Cc1oc2ccc(NS(=O)(=O)c3ccc(C(C)(C)C)cc3)cc2c1C(=O)Nc1ccccc1,"inconclusive: 35.5 µM [inhibitor, single point]",–
COC(=O)N/N=C/c1ccc(-c2ccc(C)c(Cl)c2)o1,–,inactive: -3.68%

SMILES,Potency,"activity change, negative = inhibition"
O=C(O)CCCN1C(=O)/C(=C\c2ccco2)SC1=S,"inconclusive: 4.47 µM [inhibitor, full curve]",–
CCc1nc2oc3ccc(C)cc3c(=O)c2cc1C(=O)OC,"inconclusive: 11.2 µM [activator, partial curve, poor fit]",–
O=C(Cc1ccc(S(=O)(=O)N2CCCC2)s1)N1CCN(c2ccc(F)cc2)CC1,"inconclusive: 11.2 µM [inhibitor, partial curve, poor fit]",–
O=[N+]([O-])c1ccc(Sc2nccn2Cc2ccccc2)c([N+](=O)[O-])c1,–,inactive: 4.59%
O=C(NC(O)C(=O)c1ccccc1)c1ccccn1 (centres undefined),–,inactive: -0.549% [at 46.1 µM]
Cc1cc(C(=O)CSc2ccc3c(c2)OCCO3)c(C)n1C1CC1,"inconclusive: 2.91 µM [activator, full curve]",–
Cc1cccc(CSc2nc3c(cc2C#N)CN(C)CC3)c1,–,inactive: 9.09%
COc1ccc(/C=C/C(=O)N2CCCc3ccccc32)c(OC)c1,"inconclusive: 11.2 µM [inhibitor, partial curve, poor fit]",–
CS(=O)(=O)c1ccc(C(=O)OCC(=O)NC(=O)C2CCCCC2)cc1[N+](=O)[O-],"inconclusive: 29.1 µM [inhibitor, single point]",–
NC(N)=NC(=O)c1nc(Cl)c(N2CCCCCC2)nc1N,"inconclusive: 5.8 µM [inhibitor, full curve]",–
COc1ccc(N=Cc2sc(O)c3ccccc23)cc1,"inconclusive: 0.1 µM [activator, full curve, poor fit]",–
CC(=O)OC[C@H]1O[C@H](C#Cc2ccc(C)cc2C)C=C[C@H]1OC(C)=O,–,inactive: -33% [at 14.3 µM]
COc1ccc(S(=O)(=O)N2CCC(N3CCN(Cc4ccc(F)cc4)C(=O)C3=O)CC2)cc1,–,inactive: -0.856% [at 46.1 µM]
CC1CN(S(=O)(=O)c2cccc(C(=O)Nc3ccccc3N3CCCC3)c2)CC(C)O1 (centres undefined),"inconclusive: 11.2 µM [inhibitor, single point]",–
CN(C(=O)COC(=O)CNS(=O)(=O)/C=C/c1ccccc1)C1CCS(=O)(=O)C1 (centres undefined),"inconclusive: 6.51 µM [inhibitor, single point]",–
CC(C)Cn1nc(NC(=O)C2CCCO2)c2cc3ccccc3nc21 (centres undefined),–,inactive: -12.1%
Cc1ccc(CNC(=O)c2oc3ccc(S(=O)(=O)N4CCOCC4)cc3c2C)cc1,"inconclusive: 16.4 µM [inhibitor, partial curve, poor fit]",–
CCCCc1sc(-c2c(C#N)c(N)nc3c2CCCCC3)cc1[N+](=O)[O-],"inconclusive: 6.51 µM [inhibitor, partial curve]",–
Cc1c(CCNC(=O)c2ccc(Br)o2)sc2nc(-c3ccc(Cl)cc3)nn12,"inconclusive: 35.5 µM [inhibitor, single point]",–
Cn1nccc1C(=O)NC1CCCc2c1cnn2-c1ccc(C(C)(C)C)cc1 (centres undefined),"inconclusive: 11.2 µM [inhibitor, partial curve, poor fit]",–
O=C(N/N=C/c1ccc([N+](=O)[O-])s1)C(O)c1ccccc1 (centres undefined),"inconclusive: 16.4 µM [inhibitor, single point]",–
COc1ccc(NS(=O)(=O)c2ccc(N/N=C(\C)c3ccncc3)c([N+](=O)[O-])c2)cc1,active: 11.6 µM,–
O=[N+]([O-])c1ccc2c(c1)nnn2-c1ccccc1,–,inactive: 25.9% [at 46.1 µM]

SMILES,Potency,"activity change, negative = inhibition"
C=CCn1c(NC(=O)c2ccc(Br)o2)c(C(=O)OCC)sc1=S,–,inactive: -3.04%
O=C1CN(/N=C/c2ccc([N+](=O)[O-])o2)C(=O)N1,"inconclusive: 29.1 µM [inhibitor, single point]",–
COc1ccc(CCNC(=O)CSc2ccc(-c3ccco3)nn2)cc1OC,"inconclusive: 1.41 µM [inhibitor, partial curve, poor fit]",–
COC(=O)c1c(NC(=O)/C(C#N)=C/c2ccc(OC)cc2)sc2c1CCC2,–,inactive: 15% [at 46.1 µM]
O=C(O)C1CC=CCC1C(=O)Nc1ccc(F)c(F)c1 (centres undefined),–,inactive: -8.51%
CC(=O)c1c(C)[nH]c(C(=O)OCc2ccccc2F)c1C,"inconclusive: 35.5 µM [inhibitor, single point]",–
O=C(CSc1nc2nccnc2c(=O)n1CCc1c[nH]c2ccccc12)Nc1ccccc1,–,inactive: 15.5% [at 46.1 µM]
O=C(NCCCn1ccnc1)c1cc2nc(-c3ccc(Br)cc3)cc(C(F)(F)F)n2n1,"inconclusive: 29.1 µM [inhibitor, single point]",–
COc1cccc(NC(=O)CN(C)C(=O)c2cccc(S(=O)(=O)N3c4ccccc4CC3C)c2)c1 (centres undefined),"inconclusive: 11.2 µM [inhibitor, partial curve, poor fit]",–
COc1ccc(CN2CCN(Cc3ccc4ccccc4c3)CC2)cc1OC,"inconclusive: 35.5 µM [inhibitor, single point]",–
COc1ccccc1N1CCN(C(=O)C2CC(=O)N(c3ccccc3)C2)CC1 (centres undefined),–,inactive: -0.219%
O=C(NC1CCCCC1)C(c1ccc2ncccc2c1)N(Cc1ccccc1)C(=O)c1ccc2c(c1)OCCO2 (centres undefined),–,inactive: -25.2%
NC(=O)Cn1nnc(-c2ccc(C(F)(F)F)cc2)n1,"inconclusive: 2.59 µM [activator, full curve, poor fit]",–
COc1ccc(C(=O)Nc2cc(Cl)ccc2Cl)c(OC)n1,"inconclusive: 14.1 µM [activator, single point]",–
Cc1ccc(-n2c(=O)c3sc4ccccc4c3n(C)c2=O)cc1F,–,inactive: -2.32% [at 46.1 µM]
Cc1ccc(Nc2nc(N)nc(COC(=O)c3ccc(Br)o3)n2)cc1,–,inactive: -2.23%
Cc1nc(-c2ccc(S(=O)(=O)Oc3ccc(Cl)cc3Cl)s2)cs1,"inconclusive: 35.5 µM [inhibitor, single point]",–
O=C(NCC(c1cccs1)N1CCOCC1)c1ccccc1NS(=O)(=O)c1cc([N+](=O)[O-])ccc1Cl (centres undefined),–,inactive: -18.5%
Cc1cc(C)cc(-n2c(C)c3c(C)nnc(C)c3c2C)c1,"inconclusive: 10 µM [inhibitor, partial curve, poor fit]",–
COc1cc(CNCc2ccncc2)cc(Br)c1OCc1ccccc1F,"inconclusive: 11.6 µM [inhibitor, partial curve]",–
O=C1c2ccccc2C(=O)C1c1ccc2ccccc2n1,active: 5.8 µM,–
O=C(c1ccncc1)N(Cc1cc2ccccc2[nH]c1=O)C1CCCCC1,"inconclusive: 29.1 µM [inhibitor, single point]",–
COc1cccc(NC(=O)[C@@H](NC(=O)N2CCn3c2nc2ccccc23)C(C)C)c1,"inconclusive: 11.2 µM [inhibitor, partial curve, poor fit]",–
